Median seed-adjusted z-score data for 30 sequences are collected here from PubChem BioAssay AID1347426 (Functional Genomics Laboratory (NCATS/FGL), 2020).

Hit rate of the full screen: of about 31,000 sequences, about 1,400 (4.5%) were called active.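 Rule for the calls: active = median seed-adjusted z-score above 1 or below -1; inactive = the rest.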 Some of the results follow.

The assay is described as follows: Novel Modifiers of Survival Motor Neuron (SMN) Protein: Gene Identification via Genome-wide siRNA Screen.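 Note: luminescence tracks full-length SMN protein made from the SMN2 reporter.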 As to conditions: HEK293T SMN2-luciferase reporter, siRNA knockdown, 72 h; actives lie on both sides. The essentials: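 Each of three siRNAs per gene is reverse-transfected (1 pmol) into reporter HEK293T cells whose luciferase output tracks SMN protein level. After 72 h culture, ONE-Glo luminescence is control-normalized, log10-transformed and MAD-standardized; Common Seed Analysis deprioritizes seed-driven hits.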
Background: A reporter such as luciferase makes a cellular process visible.
With CACUACUCAUUGUACAUGATT against ZNF268, the median seed-adjusted z-score is inactive: 0.0358.

As to CCGGAACAGUUAUUAUGAATT against COG8, the median seed-adjusted z-score is inactive: 0.0438.

Take GCUGCUACUUUGAAGUCCATT against FGG: the median seed-adjusted z-score was inactive: -0.043.

On to GGAGUUCGCUCAAGAUCCATT against ZSCAN21, for which the median seed-adjusted z-score is inactive: 0.687.

For the sequence AGCUCAAUCUGUCGAUGAATT against DUSP6, the median seed-adjusted z-score was inactive: 0.

Regarding GAAUCCUUCCGUUCUAUCATT against RAB2B, the median seed-adjusted z-score is inactive: 0.882.

Take GCGGCAGCAUAUGGACUCATT against RNASE1: the median seed-adjusted z-score is inactive: 0.085.

Turning to GCAAGAAGACGGUCAUCGATT against TFDP1, the median seed-adjusted z-score is inactive: 0.0449.

As for GUUUGUAGGUCGUCAGAAATT against NDUFS6, the median seed-adjusted z-score is inactive: -0.0128.

Regarding GCAGUACAACUACACUUUUTT against EIF4E2, the median seed-adjusted z-score was inactive: 0.0495.

On to GAGCAAAUCAAAGAACUAATT against TSC22D1, for which the median seed-adjusted z-score was inactive: 0.

As to CUUCGAUCCUUUUUCCGUATT against ARSI, the median seed-adjusted z-score is inactive: 0.

With GAUCUUCUAUGAUACAGGATT against DPP8, the median seed-adjusted z-score was inactive: -0.0209.

As for GCAUCGAAACAUUAGAGGATT against ZNF131, the median seed-adjusted z-score is inactive: 0.645.

Take GUACCUACAUCAGAUCUAATT against RPN2: the median seed-adjusted z-score is inactive: -0.217.

Regarding UGCUAUUUCUAGACAUGAATT against LHX3, the median seed-adjusted z-score is inactive: 0.622.

Regarding GGCUAUCAGGGAUUAGAUATT against ADAMTS19, the median seed-adjusted z-score is inactive: -0.39.

Turning to CCUUCAAGCAGAAGUCCAATT against ZNF707, the median seed-adjusted z-score was inactive: -0.119.

For GCCUCGCACCAUUUACCUUTT against PFKFB2, the median seed-adjusted z-score was inactive: 0.311.

For the sequence AACGAAACCUGGUACCUGATT against DHCR7, the median seed-adjusted z-score is inactive: 0.00451.

As for GCAUCGCAGAGUUCACACUTT against ZNF211, the median seed-adjusted z-score was inactive: -0.173.

As for CUCUCAUCGUCAUCACUUUTT against SLC12A3, the median seed-adjusted z-score is inactive: -0.891.

GCCCUUCUUCUACUCACUATT against DEGS2: the median seed-adjusted z-score is inactive: -0.305.

On to UCUCAUUGCCGACCUCUUUTT against SPNS1, for which the median seed-adjusted z-score was inactive: -0.0598.

In the case of CGAAACCAACUAUACGCUATT against ANGPTL3, the median seed-adjusted z-score was inactive: 0.117.

Take CAAUGAAGAGGAUCGAAAATT against TES: the median seed-adjusted z-score is inactive: -0.698.

On to GGUUAUCCUAUCUAAAAGATT against VN1R2, for which the median seed-adjusted z-score is inactive: -0.151.

Take GAAAGACUGUCCUAAGAUATT against ZNF193: the median seed-adjusted z-score is inactive: 0.276.

For GCACAGUUGUCAUCAACAUTT against LOX, the median seed-adjusted z-score was inactive: -0.175.

On to CUAUGAGUGUAAUUACUGUTT against ZNF189, for which the median seed-adjusted z-score is inactive: 0.0743.
